The results in this text go back to publication PMC7862700.

Amino acid sequences for entries named in this document (tags omitted). A change or cut given only in a name is not applied to a line headed by its entry.
UniProt Q01892: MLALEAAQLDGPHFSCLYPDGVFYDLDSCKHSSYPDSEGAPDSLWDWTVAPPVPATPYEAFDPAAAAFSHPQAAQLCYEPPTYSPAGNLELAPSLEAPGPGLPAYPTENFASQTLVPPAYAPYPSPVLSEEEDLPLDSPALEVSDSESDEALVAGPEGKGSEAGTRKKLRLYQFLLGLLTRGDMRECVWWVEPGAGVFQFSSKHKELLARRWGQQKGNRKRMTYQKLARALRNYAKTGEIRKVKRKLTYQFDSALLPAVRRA

The list shows a part of the results, in another mix than the full data. At the low end of the ranking the order means little.

Assay in all cases: DAPPL (digital affinity profiling via proximity ligation, sequencing)
Common to all, as to settings: 10 mM Tris-HCl pH 7.5, 50 mM NaCl, 1 mM DTT, 4% glycerol, room temperature, 30 min; GST-TFs on glutathione beads, 16-mer random dsDNA library, 0.1% …; high values mean tight binding; double strand, one strand shown; scale: fold enrichment (6-mer frequency, TF over GST control)

One assay concerns the target T1, EHF (UniProt Q9NZC4).
T1 sequence: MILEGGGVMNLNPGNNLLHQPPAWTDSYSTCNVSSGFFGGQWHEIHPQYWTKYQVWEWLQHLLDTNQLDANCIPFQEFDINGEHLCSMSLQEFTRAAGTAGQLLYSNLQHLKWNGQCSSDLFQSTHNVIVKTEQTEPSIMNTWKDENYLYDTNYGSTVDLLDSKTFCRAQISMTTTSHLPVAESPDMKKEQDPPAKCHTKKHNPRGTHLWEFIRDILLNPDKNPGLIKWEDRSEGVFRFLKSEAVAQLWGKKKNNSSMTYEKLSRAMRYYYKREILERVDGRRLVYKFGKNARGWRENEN

The next assay addresses T2, ETV3L (UniProt Q6ZN32).
T2 sequence: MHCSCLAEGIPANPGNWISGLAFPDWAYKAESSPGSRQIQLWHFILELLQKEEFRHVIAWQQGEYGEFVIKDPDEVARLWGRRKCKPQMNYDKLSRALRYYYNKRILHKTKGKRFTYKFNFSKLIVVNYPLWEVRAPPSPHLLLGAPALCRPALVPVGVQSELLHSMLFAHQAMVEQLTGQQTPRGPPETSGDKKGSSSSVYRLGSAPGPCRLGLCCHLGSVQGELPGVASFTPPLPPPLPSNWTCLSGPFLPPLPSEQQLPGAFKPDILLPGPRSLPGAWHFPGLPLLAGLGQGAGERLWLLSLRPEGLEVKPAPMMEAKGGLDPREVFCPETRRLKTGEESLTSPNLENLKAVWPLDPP

The target of a further assay is SPIB (UniProt Q01892).

Turning to CCCCAT, the binding signal with EHF worked out at 1.27; with ETV3L, 1.29. On the same counts, the results for GGTTTA are 1.08 and 0.967. On the same counts, the results for ATGAGC are 1.18 and 1.14. On the same counts, the results for ATCCGC are 1.82 and 1.84. Turning to TTCATA, the binding signal with EHF was found to be 1.18; with ETV3L, 1.23.

For ATGGTT, the binding signal with EHF turned out to be 1.28; with ETV3L, 1.36.

Regarding CGCGAC, the binding signal with EHF turned out to be 1.12; with ETV3L it was 1.04. In the assay with ETV3L, TGGTAT displayed a binding signal of 1.37. In the assay with ETV3L, TACCCT returned a binding signal of 1.18.

As to ATCACT, the results for the binding signal in the assay with EHF and with ETV3L were 1.15 and 1.16, respectively. In the case of GCTCCT, the values for the binding signal with EHF and with ETV3L were 1.41 and 1.61, respectively. For ACCAAC, the binding signal was determined as 1.18 in the assay with EHF and 1.13 with ETV3L. On the same counts, the results for CTCAGG are 0.987 and 0.96.

In the case of GTTCTA, the binding signal worked out at 1.12 with EHF and 1.2 with ETV3L. On the same counts, the results for CTTCAG are 1.34 and 1.26. On the same counts, the results for GCCTTG are 1.24 and 1.34. On the same counts, the results for CCGCTA are 1.41 and 1.27. With TCAATA, the binding signal stood at 1.14 with EHF and 1.24 with ETV3L. As for CTTTCC, the binding signal with EHF amounted to 2.05; in the assay with ETV3L it was 1.76. On the same counts, the results for TTTAAA are 1.21 and 1.35.

Take TGTGCT: the binding signal with EHF stood at 1.11; with ETV3L, 1.12. Regarding CACTCG, the binding signal was 1.18 with EHF and 1.11 with ETV3L.

Turning to CTGAGC, in the assay with ETV3L, the binding signal came out at 1.14.

Take TCATGC: the binding signal with EHF stood at 1.15; with ETV3L it was 1.12.

With CTTGCC, the binding signal with EHF was 1.33; with ETV3L, 1.31. Turning to ACATTC, the binding signal with EHF worked out at 1.25; with SPIB, 1.23; with ETV3L, 1.3. On the same counts, the results for TATTCA are 1.32, 1.27 and 1.43. For the sequence TATCAG, the binding signal came to 1.2 in the assay with SPIB and 1.11 with ETV3L. On the same counts, the results for GTTCCG are 2.15 and 1.93. In the case of CACGAA, the binding signal with SPIB came to 0.988; in the assay with ETV3L, 1.01.

Turning to CAATCA, the results for the binding signal in the assay with EHF and in the assay with ETV3L were 0.994 and 1.2, respectively. Take ATTCAG: the values for the binding signal in the assay with SPIB and in the assay with ETV3L were 1.02 and 1.2, respectively. TTACTG: the binding signal with SPIB came to 0.991; in the assay with ETV3L, 1.04. Regarding TTCTCA, the results for the binding signal with SPIB and in the assay with ETV3L were 1.31 and 1.23, respectively. On the same counts, the results for TATGCG are 1.29 and 1.39. On the same counts, the results for GTTTCC are 2.84 and 2.7.

As to ATGAAT, the binding signal in the assay with SPIB was found to be 1.23; with ETV3L, 1.14.

With TAAAGT, the results for the binding signal with SPIB and with ETV3L were 1.11 and 1.29, respectively. Take GGCTAG: the binding signal was determined as 1.18 in the assay with SPIB and 1.06 with ETV3L.

For the sequence GATGAA, the results for the binding signal with SPIB and with ETV3L were 1.24 and 1.25, respectively. On the same counts, the results for TGGCAG are 1.12 and 1.12. On to CAAAAC, for which the binding signal came out at 1.26 with EHF and 1.27 with ETV3L. Consider GGCTTC, for which the binding signal stood at 1.78 in the assay with SPIB and 1.61 with ETV3L. Regarding GATCTT, the binding signal in the assay with EHF is 1.22; in the assay with SPIB, 1.36; with ETV3L it was 1.15. For the sequence TATTCG, the binding signal was found to be 1.11 with EHF and 1.16 with ETV3L. In the case of CTCTTG, the binding signal was 1.43 in the assay with SPIB and 1.42 with ETV3L. For GCGACT, the results for the binding signal in the assay with EHF, with SPIB and with ETV3L were 1.21, 1.33 and 1.17, respectively. On to CTGGAT, for which the figures for the binding signal with EHF and with ETV3L were 1.32 and 1.5, respectively.

For AATGCC, the binding signal with SPIB amounted to 1.17; with ETV3L it was 1.07.

On to AGCCCT, for which the binding signal was found to be 1.18 with EHF and 1.12 in the assay with ETV3L.

In the case of AAGCAG, the binding signal in the assay with EHF was found to be 1.12; with SPIB, 0.967; with ETV3L, 1.04. With GAATTC, the figures for the binding signal with EHF, with SPIB and with ETV3L were 1.43, 1.38 and 1.41, respectively. In the case of CGTATG, the binding signal with SPIB worked out at 1.09; with ETV3L it was 1.07. On the same counts, the results for CATGAA are 0.967 and 0.995.

On to TGCCCG, for which the binding signal was found to be 1.27 with EHF and 1.16 with ETV3L. ATGTAC: the binding signal with EHF was found to be 1.25; with SPIB, 1.27; with ETV3L, 1.32. On to CCTCAT, for which the values for the binding signal with SPIB and with ETV3L were 1.33 and 1.37, respectively.

Turning to CAGCTT, the binding signal with SPIB and with ETV3L was 1.2 each time. As for ACCCTA, the binding signal with SPIB is 1.16; in the assay with ETV3L, 1.26. As for TGTCTC, the values for the binding signal in the assay with EHF and with ETV3L were 1.22 and 1.3, respectively.

Regarding CTTAGG, the values for the binding signal with SPIB and in the assay with ETV3L were 1.08 and 1.01, respectively. On the same counts, the results for GCCTCC are 1.29 and 1.27. On to TTAGTA, for which the binding signal with SPIB came out at 1.06; with ETV3L it was 1.07. In the case of AATGCA, the binding signal came to 1.34 with SPIB and 1.28 in the assay with ETV3L. On to CTTATG, for which the binding signal with EHF came to 1.39.

Take ACGTTC: the binding signal with EHF is 1.3.

In the assay with EHF, CTCTGC had a binding signal of 1.57. In the assay with EHF, TCATTT gave a binding signal of 1.36. Consider TGCGCT, for which the binding signal with EHF turned out to be 1.25. Same read-out and setting: the figure for TAACGA is 0.994; for ACTTCC it is 8.81.

Regarding CTGGTT, in the assay with EHF, the binding signal worked out at 1.18. The same measure, in the same setting: the figure for AAATTC is 1.32; for AACTAA it is 1.42.

ACACGA registered a binding signal in the assay with EHF of 0.976.

Consider ACATCA, for which, in the assay with EHF, the binding signal was determined as 1.23. On the same count and under the same terms, the same measure for GTAACA: 1.21; for TTGCAC: 1.21.

Turning to TGATGG, the binding signal with EHF came out at 1.31. On the same count and under the same terms, the figure for TTACCG is 1.24.
